Values quoted from earlier work as cited in patent US20190002825A1, “Method for Inducing Targeted Differentiation of Human Stem Cells Toward Hepatic Cells” (TRANSCEND CYTOTHERAPY CO., LTD, priority 2015, published 2019).
At least one compound was matched to its structure with a doubt left.

Conditions: cited from earlier work

SMILES: O=C(NCc1cccc(O)c1)Nc1nc(-c2ccncc2)cs1 [RKI-1447]
- anti-invasion and anti-tumor activity: anti-invasion and anti-tumor activity
